Laboratory results from PMC10163288.
The other results are listed elsewhere or left out.

B1: il10ra_site1_normal_mot_HHH_b2_03220_af2_000000223_0001_23_40_H_._HHH_b1_05792_af2_0001_0000100001_0000001_0 (protein)
chain: SSSSSSEENEEIWEIIRRALHIDDPEEAHELLERARELAEEANSEVLLFTIRYLLRQLEGSSSSS
B2: il10ra_site1_normal_mot_126ace9b790e630c13bc3545a3f0f279_0001_af2_000000260_0001_15_29_H_._HEEHE_2663_0001_0000500026_0000001_0_af2pred_0001 (protein)
chain: DEEEIELAIRYLIEFNANPPRVEISVENNEIEVTVEGTDEAARQAQIAVEAFARLKGIPVNVEER
B3: il10ra_site1_sap_17_mot_HHH_b2_04681_000000155_0001_43_57_H_._HHH_b2_07038_af2_0001_0000400013_0000001_0_0001_af2pred_dldesign_0_af2pred (protein)
chain: SSSSSSSDPERILALIRRALEEEDPEKARELLEEALRLAKEAGNEVAIRAAEYLLRQVSSSSSSS
B4: il10ra_site1_sap_24_mot_HHH_b2_00479_000000091_0001_1_12_H_._HHH_b2_07120_0001_0000300019_0000001_1_0001_af2pred_0001 (protein)
chain: SSPEEAEKLLEEAEELARKQNDEEAHEIVEQMKRLLELAEELNNEQALRVILFLARALAEELESS
B5: il10ra_site1_normal_mot_HHH_b2_04945_000000076_0001_1_19_H_._HHH_b2_02643_0001_0000100001_0000002_0 (protein)
chain: SSSTDEVFKFVREVLEEAARLLREGNPEEAERLLEEAEKLAQELGNLALRFSLEHLLRVIRSSSS
B6: il10ra_site1_sap_17_mot_1f0bf248c09923a0581b66a675a8b92c_0001_af2_000000190_0001_52_65_H_._HHH_b2_04143_0001_0000200022_0000001_0_0001 (protein)
chain: SSSSDEEEERLEKLLEEAKELIEEGNPREALEVLLEAVRLAMKLGDEEALQEIWRLVQKLKSSSS
B7: il10ra_site1_normal_mot_HHH_b1_01082_af2_000000031_0001_3_19_H_._HHH_b1_04169_0001_0000100007_0000001_0 (protein)
chain: SSSSDESEEILEEARELIERLLEEGNYEEAYKVLKRAIELLVELGDDEALQELLEFFQRRSSSSS
B8: il10ra_site1_normal_mot_HHH_b1_05088_af2_000000046_0001_20_36_H_._HHH_b2_02810_0001_0000200011_0000002_0 (protein)
chain: SSSSDEEVREEVERLLEEAKEIEDAEEAYKALRRAIELAAENQDKELLELILRVIREWLNSSSSS
B9: il10ra_site1_normal_mot_HHH_b2_04680_000000215_0001_1_16_H_._HHH_b1_03111_0001_0000500024_0000001_1 (protein)
chain: SSSSSSDEREAYELIRRAFEIEDPEEARELLREALELAEEAGNFALRFAIRQLLRQLESSSSSSS
B10: il10ra_site1_sap_18_mot_HHH_b1_01481_000000287_0001_1_20_H_._HHH_b2_00170_0001_0000300039_0000001_0_0001 (protein)
chain: SSSSSQEEELVEAAIRMLEQAFKWGDPERAKAMFWAARFVAEEINDDELRREIEEVYEELSSSSS
B11: il10ra_site1_sap_16_mot_HHH_b2_07873_af2_000000172_0001_1_19_H_._HHH_b1_07132_0001_0000300020_0000001_0_0001 (protein)
chain: SSSSDATHEVYKLSRRVMELLAEGNKEEAEELLEEIRELVEEAGSQVMEFILELLKRAIEHSSSS
B12: il10ra_site1_sap_21_mot_HHH_b2_04679_000000194_0001_21_38_H_._HHH_b2_04966_0001_0000200027_0000001_0_0001 (protein)
chain: SSSSSDNHEIYRLSREALELFANGNPEEAEKVLEEAERLAEELGNRVLLFALRRLARAVNSSSSS
B13: il10ra_site1_normal_mot_HHH_b2_03328_af2_000000127_0001_1_19_H_._HHH_b1_02422_0001_0000200014_0000002_0 (protein)
chain: SSSDVEERVKELLERIEEAVEEGDARKLYELSRLIAELAFEYNNPEANRVLREAAELVARRLSSS
B14: il10ra_site1_sap_18_mot_ems_3hM_3073_000000042_0001_1_18_H_._HHH_b1_01029_0001_0000100003_0000002_0_0001 (protein)
chain: SSSDENQRALELSQKAFRLALRGNPEEAREVLEEALELAEEGGNERLAEQIRILLETLEAGSSSS
B15: il10ra_site1_normal_mot_HHH_b1_02809_af2_000000277_0001_40_57_H_._HHH_b2_07759_af2_0001_0000200012_0000002_0 (protein)
chain: SSSSSSEDEKYIELALKFARALEDKEAARLLARAALEIARRAGDEELFEKVEEFLEELNSSSSSS
B16: il10ra_site1_sap_22_mot_HHH_b1_07527_000000076_0001_1_15_H_._HHH_b1_07772_0001_0000100002_0000002_0_0001 (protein)
chain: SSSSSDRRQEVLRLSLRAFRLALRGNPEEAKEVLEEALELAEEGNDERLFEMLRRLLETLSSSSS
B17: il10ra_site1_sap_18_mot_HHH_b1_01975_000000257_0001_1_17_H_._HHH_b1_07669_af2_0001_0000400016_0000002_0_0001_af2pred_0001 (protein)
chain: SSSSDDQEKALERLLRAAKELLERGNPEFAKRALRFAEHAAKAANDHELLEEIRELLEEVTSSSS
B18: il10ra_site1_normal_mot_HHH_b2_06979_000000158_0001_42_57_H_._HHH_b1_03932_af2_0001_0000300016_0000002_1_af2pred_0001 (protein)
chain: SSSSSREELIRRAFELIKRAAEISDEEEVERLLEEARELAEEAGNEELVRAIEFREKALLSSSSS
B19: il10ra_site1_normal_mot_HHH_b1_00682_000000211_0001_1_20_H_._HHH_b2_01840_0001_0000100011_0000002_0 (protein)
chain: SSSSDVEERVEELLEQARELLEKGNPDEAYKLLREAVELASERNDPELQRLVVEVSRELFSSSSS
B20: il10ra_site1_normal_mot_HHH_b1_02708_af2_000000019_0001_23_39_H_._HHH_b2_02879_af2_0001_0000400016_0000002_0_af2pred_0001 (protein)
chain: SSSSNEEREVARLLLRVIELYANGNPEEAKEVLKEAEELAEELGDEELRRAVEIVKRFVENSSSS
B21: il10ra_site1_sap_28_mot_HHH_b2_07006_000000108_0001_1_19_H_._HHH_b2_00906_0001_0000300042_0000001_0_0001_af2pred_0001 (protein)
chain: SSSSDEEELEEIARKIVEELEKEYNLSEEERKLLELLARLAVLAGASPERIEKSLRAAARGSSSS
B22: il10ra_site1_normal_mot_HHH_b1_04065_000000255_0001_41_56_H_._HHH_b2_02179_0001_0000400021_0000001_0 (protein)
chain: SSSSSEHREEVERLLEEAEESDDPREVAQLLFEALRRAWEARDPELLKEVLQVAIELQHLLSSSS
B23: il10ra_site1_normal_mot_HHH_b2_04275_000000272_0001_20_36_H_._HHH_b1_00803_af2_0001_0000600054_0000001_0 (protein)
chain: SSSSDESQRVYELLRRASEAEHEGNPEEAEELLEEAEKLAEELNNHVLLATIRFLLKLINSSSSS
B24: il10ra_site1_sap_18_mot_HHH_b2_03220_af2_000000223_0001_23_40_H_._HHH_b2_05553_0001_0000200016_0000001_0_0001 (protein)
chain: SSSSSLAERVQELSREAVELDHEGNPEEAEELLEEAEEIAREANNDVLLMQVEYLLRHVGSSSSS
B25: il10ra_site1_normal_mot_HHH_b2_00475_000000107_0001_44_57_H_._HHH_b1_06647_af2_0001_0000400020_0000002_0 (protein)
chain: SSSSEEREVVELIFRAVRLLANGNPEEAEKVLERAEELAKELNDEELQRYVEIALHFVRSHSSSS
B26: il10ra_site1_sap_12_mot_HHH_b1_00682_000000235_0001_1_20_H_._HHH_b1_06101_0001_0000200013_0000001_0_0001 (protein)
chain: SSSSDELRRAAHLSLRAFRLALRGNPEEAREVLEEALRLAEEAGDERLARIIERILRALKSSSSS
B27: il10ra_site1_normal_mot_8756ee2cf497b5429c717dfc0c0bcfd6_0001_000000186_0001_1_13_H_._HHH_b1_03712_af2_0001_0000400016_0000001_0 (protein)
chain: SSSSNELERVYELIRLLAELLRRGDEEEFEEVSEEVKKLVEELNNDVLRAVVEYLQRHLESSSSS
B28: il10ra_site1_normal_mot_HHH_b2_04275_000000272_0001_20_36_H_._HHH_b1_08149_0001_0000100012_0000001_1 (protein)
chain: SSSSTEESERVYELLRRLSEADHDGDEELFEELLEEVRELAEKIGSPLLRFQVEFLERIFHSSSS
B29: il10ra_site1_sap_16_mot_HHH_b1_05088_af2_000000046_0001_20_36_H_._HHH_b2_07571_af2_0001_0000300015_0000001_0_0001 (protein)
chain: SSSSSAQEEARELLEEAEELLRQGNPEEAMRLLQEASAFALRASDEELLQEIWELVRRLASSSSS
B30: il10ra_site1_normal_mot_HHH_b2_02337_000000026_0001_38_52_H_._HHH_b2_02232_0001_0000200025_0000001_0 (protein)
chain: SSSSDVEEEVERLIEEAKELLEEGDPRRAAEVLAEAVQFALESGDEELLRQIWELVQKIANSSSS
B31: il10ra_site1_normal_mot_HHH_b1_01886_000000262_0001_1_18_H_._HHH_b1_08614_0001_0000300029_0000002_0 (protein)
chain: SSSSSTLEWSVEFVKRVAEELAELGNPEQAQELLKKLLEHLRQAGNPELLEELEELLEELSSSSS
B32: il10ra_site1_sap_28_mot_HHH_b1_05937_af2_000000262_0001_20_37_H_._HHH_b1_07210_0001_0000200025_0000001_0_0001 (protein)
chain: SSSSDYEEKVERLLEELRELLEEGDQEKFNELILEVLRLIIRNKNAELLRELWEIVEKWGKSSSS
B33: il10ra_site1_normal_mot_HHH_b2_01205_000000166_0001_1_19_H_._HHH_b1_02342_0001_0000100007_0000001_0 (protein)
chain: SSSSDETREIYELLQEAFELLEEGDPEEARKVLEEAVELAEEAGNFSFLFSARLALRDLNSSSSS
B34: il10ra_site1_sap_21_mot_HHH_b1_00666_000000226_0001_43_56_H_._HHH_b2_06995_0001_0000100005_0000002_0_0001_af2pred_dldesign_0_af2pred (protein)
chain: SSSSNPEVEAEAERLYEELKKLLKEGKKDEVQKKFQELVELANENENLKAAQLANELLKLLSSSS
B35: il10ra_site1_normal_mot_HHH_b2_03220_af2_000000223_0001_23_40_H_._HHH_b1_05693_0001_0000100002_0000001_0 (protein)
chain: SSSSDLEEIWELARRALELRANGNPEEAEKVLEEAIRLAEELGSRVLVFNLELLLRTLERASSSS
B36: il10ra_site1_normal_mot_HHH_b2_00033_000000036_0001_41_54_H_._HHH_b1_07799_af2_0001_0000300010_0000002_0 (protein)
chain: SSSSDEEAQELFQEVWELIKRGDREELEKLLKEIEELEKEDPRLRDTLRMAVFAARQFLNSSSSS
B37: il10ra_site1_sap_19_mot_83efa5f199d74a44323d7a465a177682_0001_af2_000000100_0001_37_51_H_._HEEHE_2120_0001_0000700018_0000001_0_0001 (protein)
chain: SSSSSDEEELRELLEEIERLLEEGDHEEALRLIIEVIRLAFQLRDEEALQLAWELAKELESSSSS

Target: il10ra, Q13651
Assay: yeast display titration

Apparent Kd, inactive:
B1 no binding seen, B2 no binding seen, B3 no binding seen, B4 > 2810 nM, B5 no binding seen, B6 no binding seen, B7 no binding seen, B8 no binding seen, B9 no binding seen, B10 no binding seen, B11 no binding seen, B12 no binding seen, B13 no binding seen, B14 no binding seen, B15 no binding seen, B16 no binding seen, B17 no binding seen, B18 no binding seen, B19 no binding seen, B20 no binding seen, B21 no binding seen, B22 no binding seen, B23 no binding seen, B24 no binding seen, B25 no binding seen, B26 no binding seen, B27 no binding seen, B28 no binding seen, B29 no binding seen, B30 no binding seen, B31 no binding seen, B32 no binding seen, B33 no binding seen, B34 no binding seen, B35 no binding seen, B36 no binding seen, B37 no binding seen
